In US4761405A, “Antagonists of specific excitatory amino acid neurotransmitter receptors having increased potency” (priority 1987, dated 1988):
At least one compound was matched to its structure with a doubt left.

Legend:
[1] = system: QUIS receptors (rat forebrain membranes); experiment: In vitro receptor binding: inhibition of specific [3H]AMPA binding; conditions: 50 μM compound; 4 nM ligand; pH 6.9, 100 mM KSCN; 60 min, 4° C.; mean ± S.E.M. of three determinations
Protocol: (§1) The potency of the compound described in example IV to inhibit the specific binding of various EAA ligands to rat forebrain membranes was examined using standard in vitro binding techniques. Specifically, example IV was evaluated for potency to inhibit the specific binding of [^3 H]kainic acid ([^3 H]KA),[^3 H]RS-α-amino-3-hydroxy-5-methyl-4-isoxazole propionic acid([^3 H]AMPA) and [^3 H]3-(2-carboxypiperazin-4-yl) propyl-1-phosphonic acid([^3 H]CPP) to KA, QUIS and NMDA receptors, respectively. […]
(§2) On the day of assay, pellets were thawed to room temperature, resuspended in buffer (Tris HCl; 0.05 M; various pH; 23° C.) and washed three additional times by centrifugation as described in the preceeding paragraph. […] Following the addition of 6 mL of Econfluor® (New England Nuclear, Boston, Mass.) radioactivity was determined using conventional liquid scintillation spectrophotometry. […]
(§3) All assays were performed on three separate occassions. Appropriate reference compounds were evaluated in each assay and experiment using parallel incubations. All compounds were examined at a single concentration (50 uM) and activity was expressed as the percent inhibition of specific binding of each ligand. […]

[2] = system: KA receptors (rat forebrain membranes); experiment: In vitro receptor binding: inhibition of specific [3H]KA binding; conditions: 50 μM compound; 2 nM ligand; pH 7.4; 90 min, 2° C.; mean ± S.E.M. of three determinations
Protocol: as §1, §2, §3

[3] = system: NMDA receptors (rat forebrain membranes); experiment: In vitro receptor binding: inhibition of specific [3H]CPP binding; conditions: 50 μM compound; 8 nM ligand; pH 7.4; 30 min, 23° C.; mean ± S.E.M. of three determinations
Protocol: as §1, §2, §3

## N[C@@H](CCC(=O)O)C(=O)O [GLU, L-glutamate]
[1]
  Percent inhibition of specific ligand binding, [3H]AMPA: 95 ± 4%
[2]
  Percent inhibition of specific ligand binding, [3H]KA: 95 ± 3%
[3]
  Percent inhibition of specific ligand binding, [3H]CPP: 87 ± 8%

## CN[C@H](CC(=O)O)C(=O)O [NMDA, N-methyl-D-aspartate]
[1]
  Percent inhibition of specific ligand binding, [3H]AMPA: 5 ± 3%
[2]
  Percent inhibition of specific ligand binding, [3H]KA: 19 ± 5%
[3]
  Percent inhibition of specific ligand binding, [3H]CPP: 90 ± 5%
